The subject of this test is B6C3F1 mice, intracerebral ependymoblastoma, median survival T/C. In words: NCI In Vivo Anticancer Drug Screen. Data for tumor model Ependymoblastoma (intracerebral) in B6C3F1 mice. The note with it: T/C endpoint: median survival time, schedule: Q01DX005 (ip), vehicle: saline with Tween-80, higher T/C = longer survival. How it is done: The antitumor activity of compounds was measured in mice bearing transplantable tumors. Survival or tumor size were measured and the results are expressed as the measurement made in the treated group (T) divided by the measurement made in the vehicle treated control group (C). The tumor model used in this assay is Ependymoblastoma (intracerebral) in B6C3F1 mice

Each structure is given as a SMILES string. The list shows only some results of the screen, not a fair sample: it covers a few groups of compounds. Not every dose and run of a compound is shown. T/C: endpoint of the treated group in % of that of the vehicle group. Where survival is the endpoint, this PubChem deposit counts one and a half times the control or more as active, and values a quarter to a half above the control carry no call in these data; other NCI protocols may use other cut-offs. Some T/C values are marked as having no survivor count here; that says nothing about deaths at the dose. Schedule codes are those of the source, taken here to give the interval after Q, in days (D) or hours (H), and the number of doses after X.

For `Cc1cc2nc(CN(CCCl)CCCl)[nH]c2cc1C`, the T/C (dose: 0.5 mg/kg/injection) is 97 % of control [survivor count not shown]; the T/C (dose: 1.0 mg/kg/injection) is 103 % of control [survivor count not shown]; the T/C (dose: 2.0 mg/kg/injection) was 102 % of control [survivor count not shown]; the T/C (dose: 4.0 mg/kg/injection) was 103 % of control [survivor count not shown]; the T/C (dose: 8.0 mg/kg/injection) was 123 % of control [survivor count not shown].

(Values after PubChem BioAssay AID226 (DTP/NCI, 2004).)
